In patent US20240016943A1, “SYNTHETIC DNA BINDING DOMAINS AND USES THEREOF” (The University of Chicago, priority 2020, published 2024):
Where two headings read alike, the source gives them in different places. Not every detail of the peptide structures is certain; ends, links or a residue may be inferred. Some of these results come from one statement about several compounds together. Starred links: 1 amine or outer side, 2 acyl side, 3 side chain; linkers in the order of their positions; H or OH if unused. Positions of bridges follow the written chain, without caps; N, C: chain ends. Non-standard residues stand in square brackets, D forms with d. Chains are numbered I, II in the order given. X1 = O=C1CC([*:2])C(=O)N1CC(=O)[*:1]; S5 = C=CCCC[C@](C)(N)C(=O)O; Nle = CCCC[C@H](N)C(=O)O; Aib = CC(C)(N)C(=O)O

By UniProt entry, the sequences of proteins in these tests, tags left out. Residues count along the entry.
UniProt P00761, 9-231: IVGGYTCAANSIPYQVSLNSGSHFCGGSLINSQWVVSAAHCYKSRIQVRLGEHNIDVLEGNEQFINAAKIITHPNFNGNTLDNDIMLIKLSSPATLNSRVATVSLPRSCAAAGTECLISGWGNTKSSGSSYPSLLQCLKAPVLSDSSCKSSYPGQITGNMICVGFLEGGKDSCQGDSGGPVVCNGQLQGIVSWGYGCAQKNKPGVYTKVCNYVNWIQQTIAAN

Experiments:
[1] = Circular dichroism spectroscopy; format: physicochemical; conditions: 10 μM, 20 mM phosphate buffer pH 7.4
Description: Lyophilized STR samples were resuspended in 20 mM phosphate buffer pH 7.4 and diluted to 10 μM. Circular dichroism spectra were obtained on a Jasco J-170 using a 0.1 cm quartz cuvette with the following settings: wavelength, 260-180 nm; data pitch, 1.0 nm; scan rate, 50 nm min^−1; accumulations, 3; temperature, 25-85° C. with 6° C. increments. Means-Movement smoothing at the lowest setting was applied to the recorded data.

[2] = test system: duplex DNA probes E1, E2, and E3; experiment: DNA probe specificity EMSA; format: binding; conditions: B-Z 100 nM, STR69 1 μM, STR640 125 nM
Description: For direct DNA binding experiments, STRs were serial diluted (3-fold increments) at 2× concentration in 20 μL of 1× binding buffer (20 mM HEPES pH 8.0, 150 mM NaCl, 5% glycerol, 1 mM EDTA, 2 mM MgCl2, 0.5 mg/mL BSA, 1 mM DTT, 0.05% NP-40). 20 μL of 10 nM IRD700-labeled E-box probe in 1× binding buffer was added and samples were incubated for 30 min at RT followed by 15 min at 4° C. 3.5 μL of each reaction was loaded on a 6% acrylamide, 0.5× TBE gel equilibrated to 4° C. Higher affinity compounds (e.g., STR116 and STR118) were run at 10-fold lower concentration of compound and 0.5 nM final concentration of IRD-labeled oligo. Electrophoresis was carried out for 60 min at 110 V and 4° C. with 0.5× TBE+1 mM MgCl2 running buffer. Gels were pre-run at 110 V for 60 min prior to sample loading. For specificity experiments, 25 nM STR116, 10 nM STR118, or 5 nM MAX, and 5 nM labeled E-box probe were incubated with 0, 5, 25, 125, or 625 nM unlabeled competitor oligo for 30 min at RT in binding buffer. For protein competition experiments, 1 nM TRD-Ebox oligo was added to a mixture of STR (0-1 mM) and 30 nM protein (MAX or MYC:MAX) and incubated for 30 minutes at room temperature in binding buffer. […] ImageJ was used to quantify band intensity and fraction bound DNA was calculated by dividing band intensity of bound DNA by the band intensity of the free DNA from a vehicle treated lane. […]

E-box DNA = format: binding
Description: (§1) For direct DNA binding experiments, STRs were serial diluted (3-fold increments) at 2× concentration in 20 μL of 1× binding buffer (20 mM HEPES pH 8.0, 150 mM NaCl, 5% glycerol, 1 mM EDTA, 2 mM MgCl2, 0.5 mg/mL BSA, 1 mM DTT, 0.05% NP-40). 20 μL of 10 nM IRD700-labeled E-box probe in 1× binding buffer was added and samples were incubated for 30 min at RT followed by 15 min at 4° C. 3.5 μL of each reaction was loaded on a 6% acrylamide, 0.5× TBE gel equilibrated to 4° C. Higher affinity compounds (e.g., STR116 and STR118) were run at 10-fold lower concentration of compound and 0.5 nM final concentration of IRD-labeled oligo. Electrophoresis was carried out for 60 min at 110 V and 4° C. with 0.5× TBE+1 mM MgCl2 running buffer. Gels were pre-run at 110 V for 60 min prior to sample loading. For specificity experiments, 25 nM STR116, 10 nM STR118, or 5 nM MAX, and 5 nM labeled E-box probe were incubated with 0, 5, 25, 125, or 625 nM unlabeled competitor oligo for 30 min at RT in binding buffer. For protein competition experiments, 1 nM TRD-Ebox oligo was added to a mixture of STR (0-1 mM) and 30 nM protein (MAX or MYC:MAX) and incubated for 30 minutes at room temperature in binding buffer. For DNA probe specificity experiments B-Z (100 nM), STR69 (1 μM), and STR640 (125 nM) and MAX (10 nM) were incubated with 1 nM IRD-labeled oligo and 0.01 mg/ml salmon sperm DNA for 30 minutes at RT in binding buffer. All samples were equilibrated to 4° C. for 15 minutes before loading onto 6% gel. Gels were imaged using an Odyssey Li-COR. ImageJ was used to quantify band intensity and fraction bound DNA was calculated by dividing band intensity of bound DNA by the band intensity of the free DNA from a vehicle treated lane. A four-parameter dose-response curve fit to a plot of normalized fraction bound DNA vs. log B-Z concentration yields an IC50 which was reported as the apparent KD.

MAX/MAX bound E-box DNA = experiment: Protein competition EMSA with MAX protein (MAX/MAX); format: binding, Human
E-box probe = experiment: Conditioned media binding assay (retained E-box binding by EMSA); format: in vitro ADME; conditions: HeLa conditioned media, 37° C., within the first day
Description: HeLa cells were grown to 90% confluency in a 6 cm plate and the media was collected. 10 μM STR was resuspended in 0.5 mL of the conditioned media and incubated with gentle shaking at 37° C. At 0, 24 and 48 hrs., treatment media (2 μL) was diluted into 48 μL of 1× EMSA binding buffer containing 5 nM E-box probe. DNA binding was measured using an electrophoretic mobility shift assay. Fraction bound to E-box probe was calculated by dividing the band intensity of bound DNA by the sum of the bound DNA+free DNA.

[3] = test system: control AP1 oligonucleotide; experiment: EMSA with control oligonucleotide containing the AP1 consensus binding site
[4] = test system: E-box oligonucleotide probe; experiment: DNA competition (specificity) EMSA with unlabeled competitor oligo; format: binding; conditions: 25 nM STR116, 10 nM STR118, or 5 nM MAX; 0-625 nM competitor
Description: as §1

Trypsin = target: T1, Trypsin (Sus scrofa, UniProt P00761); experiment: In vitro trypsin stability assay; format: in vitro ADME; conditions: 0.5 μg/ml trypsin, 37° C.
T1 construct: purchased Thermo-Pierce
Description: Each STR, 30 μM, was dissolved in 330 μL of 20 mM phosphate buffer pH 7.4 in a microcentrifuge tube and heated to 37° C. on a tabletop shaker (500 rpm). 30 μL of the reaction mixture was added to 60 uL of quenching solution (ACN+3% formic acid with 500 nM fmoc-lysine-OH internal standard) for 0 s timepoint sample. Thermo-Pierce MS-Grade Trypsin was added to a final concentration of 0.5 μg/ml and additional 30 μL aliquots were quenched at indicated timepoints. Quenched samples were cooled to 4° C. and centrifuged at 20,000×G for 3 min. […] Intact STR was calculated by normalizing the background subtracted integrated area under the curve for the EIC of (M+4H)/4, ±0.5 mass units, where M is mass and H is hydrogen ion, to the integrated area under the curve for the A280 peak of the internal standard. Fraction intact STR was calculated by dividing the intact STR by the normalized STR signal in the initial 0 s sample. GraphPad Prism was used to plot fraction intact STR vs time, and the proteolytic half-life was derived using a non-linear one-phase decay with the plateau constant set equal to zero.

MYC/MAX bound E-box DNA = experiment: Protein competition EMSA with MYC:MAX; format: binding, Human; conditions: 30 nM protein, 1 nM E-box oligo
[5] = test system: CCNB1 and LDHA in P493-6 cells; experiment: Western blot of MYC-target proteins; format: cell-based; conditions: ‘MYC-ON’ P493-6 cells, 10 mM, 48 Hours
P493-6 cells = experiment: Cellular viability assay (CellTiter-Glo) in P493-6 cells, MYC-ON / MYC-OFF; format: cell-based
[6] = EMSA, consensus E-box oligonucleotide, read-out: apparent KD for E-box DNA
[7] = read-out: EMSA Binding Curve kd
[8] = 30 nM protein, 1 nM E-box oligo, read-out: IC50, inhibition of MAX/MAX bound E-box DNA complex
[9] = Table 22, E-box probe, read-out: Kd, binding to an E-box probe

I: Ac-KRAHHNALERKRRDHIKDSFHKLRDSVP-NH2 / II: Ac-SRAQILCKATEYIQY[Nle]RRKN-NH2 (linker I:22-II:7 via X1) [B-Z]
secondary structure in solution by CD [1]: largely unstructured in solution | DNA motif specificity [2]: retains similar specificity to the intact protein | Kd (E-box DNA; [6]): 16 nM | Kd (E-box DNA; EMSA, covalently linked helical tetramer of the named dimer, read-out: Helical Tetramer apparent KD): 2 nM | Kd (E-box DNA; EMSA, helical dimer, read-out: Helical Dimer apparent KD): 16 nM | Fold increase (E-box DNA; EMSA, helical tetramer vs helical dimer apparent KD): 8 | Kd (E-box DNA; [7]): 16 nM | EMSA Competition with MAX protein, Helical Dimer (MAX/MAX bound E-box DNA; helical dimer form): Does not compete | EMSA Competition with MAX protein, Helical Tetramer (MAX/MAX bound E-box DNA; helical tetramer form): Does not compete | competition with MAX/MAX for E-box DNA binding (in words) (MAX/MAX bound E-box DNA; saturating concentrations of MAX): minimal competition | loss of activity (DNA binding) in conditioned media (E-box probe): > 50% | binding to control AP1 oligonucleotide [3]: no stable binding

I: Ac-PRFQSA[S5]DKR[S5]HHNALERKRRDHIKDSFHKLRDSVP-NH2 / II: Ac-SRAQILCKATEYIQYLR[S5]KIH[S5]LE-NH2 (staple I:7-I:11, II:18-II:22; linker I:30-II:7 via X1) [STR118, Ac-PRFQSA(S5)DKR(S5)HHNALERKRRDHIKDSFHK(GlyMal)LRDSVP-NH2 + Ac-SRAQILCKATEYIQYLR(S5)KIH(S5)LE-NH2]
Kd (E-box DNA; [6]): 3 nM | binding activity after heating (E-box DNA; aliquot heated to 95° C. and then cooled vs aliquot kept at room temperature): identical binding activity | IC50 (MAX/MAX bound E-box DNA; [8]): 61 nM | competition by DNA in which the E-box had been replaced entirely [4]: no competition | competition by DNA with mutation of the two central E-box nucleotides (CG to TA) [4]: some competition | competition of E-box probe binding by excess unlabeled E-box oligonucleotide [4]: effectively competed | increase of trypsin half-life relative to natural bHLH protein structures like MAX (Trypsin): > 10 fold | IC50 (MYC/MAX bound E-box DNA; read-out: IC50, inhibition of MYC/MAX bound E-box DNA complex): 170 nM

I: Ac-PRFQSA[S5]DKR[S5]HHNALERKRRDHIKDSFHKLRDSVP-NH2 / II: Ac-SR[Aib]QILCQATEYIQ[S5][Nle]RR[S5]LHTHE-NH2 (staple I:7-I:11, II:15-II:19; linker I:30-II:7 via X1) [STR116, Ac-PRFQSA(S5)DKR(S5)HHNALERKRRDHIKDSFHK(GlyMal)LRDSVP-NH2 + Ac-SR(Aib)QILCQATEYIQ(S5)(Nle)RR(S5)LHTHE-NH2]
expression of LDHA and CCNB1 protein [5]: significantly reduced expression | binding to E-box DNA (in words) (E-box DNA; EMSA): comparable specificity, but not increased affinity | Kd (E-box DNA; [7]): 14 nM | IC50 (MAX/MAX bound E-box DNA; [8]): 400 nM | IC50 (MAX/MAX bound E-box DNA; read-out: MAX Competition Titrations IC50): 65 nM | competition by DNA in which the E-box had been replaced entirely [4]: no competition | competition by DNA with mutation of the two central E-box nucleotides (CG to TA) [4]: some competition | competition of E-box probe binding by excess unlabeled E-box oligonucleotide [4]: effectively competed | increase of trypsin half-life relative to natural bHLH protein structures like MAX (Trypsin): > 10 fold | cell proliferation, ‘MYC-ON’ P493-6 cells (P493-6 cells; high MYC expression, no tetracycline): dose- and time-dependent inhibition of cell proliferation | cell growth, ‘MYC-OFF’ P493-6 cells (P493-6 cells; tetracycline-treated, low MYC): no significant effect on cell growth | IC50 (MYC/MAX bound E-box DNA; read-out: IC50, inhibition of MYC/MAX DNA binding): 1000 nM

I: Ac-PRFQSA[S5]DKR[S5]HHNALERKRRDHIKDSFHKLRDSVP-NH2 / II: Ac-SR[Aib]QILCQATEYIQSLRR[S5]IHT[S5]E-NH2 (staple I:7-I:11, II:19-II:23; linker I:30-II:7 via X1) [B11-Z70]
Kd (E-box DNA; [9]): 11 nM

I: Ac-PRFQSA[S5]DKR[S5]HHNALERKRRDHIKDSFHKLRDSVP-NH2 / II: Ac-SRAQILCKATEYIQRLR[S5]KIR[S5]LE-NH2 (staple I:7-I:11, II:18-II:22; linker I:30-II:7 via X1) [B11-Z80]
Kd (E-box DNA; [9]): 2.7 nM
